The experiment deals with T1, Irrelevant peptide (SPR control surface).
T1 sequence (peptide): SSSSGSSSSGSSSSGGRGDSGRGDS
As to the kind of experiment: SPR; Biacore3000; His-tagged peptides on NTA-Ni SAM chips; 35 uL plugs of NM23 at 5 uL/minute; bovine NM23 in PBS, recombinant human NM23 in PBS with 15 mM imidazole; control peptide on a second flow channel; 1:1 Langmuir model; both purified. For orientation: In SPR one partner is held on a chip, and binding of the other changes the refractive index at the surface.

No constants are given. Whether binding was seen depends on the method and setting.

Here are results for two substances from PMC2329594, “A Minimal Fragment of MUC1 Mediates Growth of Cancer Cells” (PLoS ONE, 2008).

For NM23 purified from bovine liver, the binding result was “no binding”.

In the case of Recombinant human NM23, the binding result is recorded as “no binding”.
